Laboratory results taken from paper PMC12239786.
These are yes or no findings as the source states them, for the method shown. For some assays here: Binding seen in cells or lysates may run through a third protein. Some binding calls cover weakened binding; strength is not graded here.

How the values were obtained:
[1] = target: Strep-tagged SARS-CoV-2 Nsp9 (SARS-CoV-2) (UniProt P0DTD1); experiment: pull-down
[2] = target: Strep-tagged SARS-CoV-2 Nsp14 (SARS-CoV-2) (UniProt P0DTD1); experiment: pull-down
[3] = target: Strep-tagged SARS-CoV-2 Nsp13 (SARS-CoV-2) (UniProt P0DTD1); experiment: pull-down
[4] = target: recombinant AGO2 protein (UniProt Q9UKV8); experiment: pull-down; recombinant AGO2 alone or mixed with recombinant Nsp9, pulled down with an AGO2 antibody, Coomassie blue staining; both purified

Substance | binding [1] | binding [2] | binding [3] | binding [4]
HuR, endogenous (from UniProt Q15717 1-326) | binds | – | – | –
Argonaute 2 (AGO2), endogenous (from UniProt Q9UKV8 1-859) | binds | binds | binds | –
recombinant His-Nsp9 (from UniProt P0DTD1 4141-4253) | – | – | – | binds
